Source: patent US20240124531A1, “COMPOUNDS AND METHODS FOR EXTENDING HALF LIFE OF BIOMOLECULES” (AFFILOGIC, priority 2021, published 2024)
Results are given in words; binding and its absence hold for the method and conditions named. Some binding calls cover weakened binding; strength is not graded here.

The chains behind the UniProt entries cited, without tags or fusion partners. Where a name states a change or a piece, a line headed by the entry shows the natural chain unless it says otherwise. Residues count along the entry.
UniProt P02770, residues 25-608: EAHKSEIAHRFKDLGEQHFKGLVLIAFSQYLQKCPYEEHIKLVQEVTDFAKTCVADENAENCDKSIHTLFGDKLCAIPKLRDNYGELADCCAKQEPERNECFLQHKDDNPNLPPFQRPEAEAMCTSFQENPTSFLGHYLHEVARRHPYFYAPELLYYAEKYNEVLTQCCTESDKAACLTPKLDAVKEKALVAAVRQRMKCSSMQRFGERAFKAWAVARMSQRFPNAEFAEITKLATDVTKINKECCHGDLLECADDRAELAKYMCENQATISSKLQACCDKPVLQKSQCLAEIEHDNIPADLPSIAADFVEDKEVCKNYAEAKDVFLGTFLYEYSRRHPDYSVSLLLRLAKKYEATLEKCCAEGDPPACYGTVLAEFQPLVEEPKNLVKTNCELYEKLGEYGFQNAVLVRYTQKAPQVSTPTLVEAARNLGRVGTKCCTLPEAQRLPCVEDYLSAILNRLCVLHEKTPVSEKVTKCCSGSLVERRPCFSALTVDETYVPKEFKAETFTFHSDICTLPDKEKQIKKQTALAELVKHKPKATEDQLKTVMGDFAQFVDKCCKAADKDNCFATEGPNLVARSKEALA
UniProt P08835, residues 25-607: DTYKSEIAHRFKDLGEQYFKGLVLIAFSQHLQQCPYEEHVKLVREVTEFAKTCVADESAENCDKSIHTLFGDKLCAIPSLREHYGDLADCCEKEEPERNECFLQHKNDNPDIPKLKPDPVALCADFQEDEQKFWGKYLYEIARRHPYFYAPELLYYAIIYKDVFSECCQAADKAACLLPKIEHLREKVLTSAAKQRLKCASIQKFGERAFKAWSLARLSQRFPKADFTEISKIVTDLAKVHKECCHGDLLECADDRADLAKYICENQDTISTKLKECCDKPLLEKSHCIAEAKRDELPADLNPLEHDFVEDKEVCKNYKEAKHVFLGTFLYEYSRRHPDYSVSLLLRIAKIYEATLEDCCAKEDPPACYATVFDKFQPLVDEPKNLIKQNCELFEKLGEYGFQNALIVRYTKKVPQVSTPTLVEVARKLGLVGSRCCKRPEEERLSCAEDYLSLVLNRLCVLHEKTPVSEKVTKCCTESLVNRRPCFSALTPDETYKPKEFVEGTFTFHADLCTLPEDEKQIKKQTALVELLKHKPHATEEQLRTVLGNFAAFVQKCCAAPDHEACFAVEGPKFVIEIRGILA
UniProt P49822, residues 25-608: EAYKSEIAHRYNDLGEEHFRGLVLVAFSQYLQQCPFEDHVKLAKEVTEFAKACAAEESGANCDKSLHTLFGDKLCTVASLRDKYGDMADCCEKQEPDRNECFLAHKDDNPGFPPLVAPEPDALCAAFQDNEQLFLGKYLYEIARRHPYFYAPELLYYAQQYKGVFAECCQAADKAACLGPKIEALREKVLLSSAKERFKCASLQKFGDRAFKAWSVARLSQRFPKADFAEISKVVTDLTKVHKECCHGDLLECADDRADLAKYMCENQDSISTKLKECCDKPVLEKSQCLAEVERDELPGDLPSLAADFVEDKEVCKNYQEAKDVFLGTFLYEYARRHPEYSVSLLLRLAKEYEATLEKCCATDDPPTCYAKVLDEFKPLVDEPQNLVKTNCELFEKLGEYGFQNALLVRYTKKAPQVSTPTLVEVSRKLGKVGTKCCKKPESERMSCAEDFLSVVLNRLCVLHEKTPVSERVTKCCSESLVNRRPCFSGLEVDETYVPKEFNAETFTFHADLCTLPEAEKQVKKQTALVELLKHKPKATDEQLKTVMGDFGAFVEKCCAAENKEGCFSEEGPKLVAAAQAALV
UniProt P02769, residues 25-607: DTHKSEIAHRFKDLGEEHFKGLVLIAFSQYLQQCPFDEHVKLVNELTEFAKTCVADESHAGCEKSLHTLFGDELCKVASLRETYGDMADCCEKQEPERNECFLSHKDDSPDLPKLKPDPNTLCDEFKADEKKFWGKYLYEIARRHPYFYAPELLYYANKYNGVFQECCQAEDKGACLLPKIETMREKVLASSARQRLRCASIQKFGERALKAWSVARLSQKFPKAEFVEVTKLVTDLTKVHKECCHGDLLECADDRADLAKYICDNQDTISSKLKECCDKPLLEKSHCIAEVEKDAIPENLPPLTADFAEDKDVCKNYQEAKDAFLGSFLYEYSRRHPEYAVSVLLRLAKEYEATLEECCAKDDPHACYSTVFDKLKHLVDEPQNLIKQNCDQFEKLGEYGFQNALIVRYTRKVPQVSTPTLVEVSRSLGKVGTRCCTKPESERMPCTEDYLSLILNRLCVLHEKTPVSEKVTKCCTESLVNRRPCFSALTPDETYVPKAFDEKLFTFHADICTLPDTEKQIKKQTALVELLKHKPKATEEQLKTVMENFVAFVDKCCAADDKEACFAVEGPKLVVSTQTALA
UniProt P07724, residues 25-608: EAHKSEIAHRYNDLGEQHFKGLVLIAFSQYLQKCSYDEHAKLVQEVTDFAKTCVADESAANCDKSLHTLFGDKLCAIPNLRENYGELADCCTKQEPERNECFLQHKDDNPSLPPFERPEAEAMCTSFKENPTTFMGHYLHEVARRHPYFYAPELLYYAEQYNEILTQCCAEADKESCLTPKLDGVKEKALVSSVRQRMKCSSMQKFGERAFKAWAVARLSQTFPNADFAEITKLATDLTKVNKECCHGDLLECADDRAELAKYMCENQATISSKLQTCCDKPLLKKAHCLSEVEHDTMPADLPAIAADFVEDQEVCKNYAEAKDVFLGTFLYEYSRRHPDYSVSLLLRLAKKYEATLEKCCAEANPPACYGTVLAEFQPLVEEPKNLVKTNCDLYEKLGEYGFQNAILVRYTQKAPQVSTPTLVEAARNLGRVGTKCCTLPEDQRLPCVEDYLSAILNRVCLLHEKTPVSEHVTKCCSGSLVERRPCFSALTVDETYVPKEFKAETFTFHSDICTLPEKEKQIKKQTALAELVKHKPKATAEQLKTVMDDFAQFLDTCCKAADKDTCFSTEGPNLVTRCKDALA
UniProt A2V9Z4, residues 25-608: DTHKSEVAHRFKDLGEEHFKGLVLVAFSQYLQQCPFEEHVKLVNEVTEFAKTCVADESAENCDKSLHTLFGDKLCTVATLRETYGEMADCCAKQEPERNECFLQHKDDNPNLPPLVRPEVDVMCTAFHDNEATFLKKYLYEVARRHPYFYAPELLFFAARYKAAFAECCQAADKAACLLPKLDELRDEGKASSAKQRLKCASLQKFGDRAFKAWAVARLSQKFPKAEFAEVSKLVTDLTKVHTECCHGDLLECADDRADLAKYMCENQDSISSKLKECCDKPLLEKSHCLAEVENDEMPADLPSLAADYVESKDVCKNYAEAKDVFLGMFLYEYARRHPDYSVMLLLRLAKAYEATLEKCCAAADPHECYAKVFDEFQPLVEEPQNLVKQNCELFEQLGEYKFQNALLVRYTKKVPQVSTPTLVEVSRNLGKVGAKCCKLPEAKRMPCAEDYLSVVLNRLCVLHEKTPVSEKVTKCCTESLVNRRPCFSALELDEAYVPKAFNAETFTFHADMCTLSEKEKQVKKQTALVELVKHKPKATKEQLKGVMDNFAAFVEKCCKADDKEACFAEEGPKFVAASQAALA
UniProt P02768: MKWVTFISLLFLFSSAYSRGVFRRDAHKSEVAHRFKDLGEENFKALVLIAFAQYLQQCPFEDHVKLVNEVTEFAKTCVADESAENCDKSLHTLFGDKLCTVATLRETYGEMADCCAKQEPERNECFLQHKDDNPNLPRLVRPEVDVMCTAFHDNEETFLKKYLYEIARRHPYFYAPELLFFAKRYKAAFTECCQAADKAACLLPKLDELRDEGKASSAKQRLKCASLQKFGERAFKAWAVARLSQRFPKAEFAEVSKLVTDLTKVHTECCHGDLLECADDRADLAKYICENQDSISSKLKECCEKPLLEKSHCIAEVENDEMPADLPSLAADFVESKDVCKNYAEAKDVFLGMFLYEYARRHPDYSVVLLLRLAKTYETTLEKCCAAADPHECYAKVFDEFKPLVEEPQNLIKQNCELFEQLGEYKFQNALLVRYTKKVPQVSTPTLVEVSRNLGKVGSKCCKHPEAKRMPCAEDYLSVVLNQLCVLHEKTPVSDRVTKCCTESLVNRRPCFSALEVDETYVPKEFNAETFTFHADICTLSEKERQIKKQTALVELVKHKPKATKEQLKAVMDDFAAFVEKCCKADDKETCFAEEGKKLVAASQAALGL
human serum albumin Domain I-II (aa1-385): residues 25-409 of P02768
human serum albumin domain II (aa189-385): residues 213-409 of P02768

Key:
Rat serum albumin [1] = target: T1, Rat serum albumin (Rat, UniProt P02770 25-608); experiment: biolayer interferometry, conditions similar to those for HSA
T1 construct: also called RSA

[2] = target: Porcine serum albumin (Porcine) (UniProt P08835); experiment: as above
Dog serum albumin (Dog) [3] = target: Dog serum albumin (Dog) (UniProt P49822); experiment: as above
[4] = target: Bovine serum albumin (Bovine) (UniProt P02769); experiment: as above
Mouse serum albumin [5] = target: T2, Mouse serum albumin (Mouse, UniProt P07724 25-608); experiment: as above
T2 construct: also called MSA

[6] = target: T3, Cynomolgus monkey serum albumin (Cynomolgus monkey, UniProt A2V9Z4 25-608); experiment: as above
T3 construct: also called CSA

human serum albumin [7] = target: T4, human serum albumin (human, UniProt P02768 25-609, biotinylated (sites not given) in the biolayer interferometry of Example 1); experiment: biolayer interferometry at pH 7.4 and pH 6
T4 construct: Biotinylated HSA immobilised on streptavidin biosensors; also called HSA

[8] = target: human serum albumin domain II (aa189-385) (human) (UniProt P02768); experiment: biolayer interferometry, His-tagged F06 on Ni-NTA biosensors, albumin domain at 250 nM, response at 180 s
[9] = target: human serum albumin Domain I-II (aa1-385) (human) (UniProt P02768); experiment: as above
[10] = target: human serum albumin domain II (aa189-385) (human) (UniProt P02768); experiment: biolayer interferometry; His-tagged Nanofitin on Ni:NTA biosensors, albumin domain at 250 nM, response at 180 sec
[11] = target: human serum albumin Domain I-II (aa1-385) (human) (UniProt P02768); experiment: as above
human serum albumin [12] = target: T4, human serum albumin; experiment: biolayer interferometry, biotinylated HSA on streptavidin biosensors, F06 in solution at 15.6 to 1000 nM, 180 s association and 180 s dissociation
[13] = target: Porcine serum albumin (Porcine) (UniProt P08835); experiment: biolayer interferometry, cross reactivity pattern (graded strength of binding)
Dog serum albumin (Dog) [14] = target: Dog serum albumin (Dog) (UniProt P49822); experiment: as above
[15] = target: Bovine serum albumin (Bovine) (UniProt P02769); experiment: as above
human serum albumin [16] = target: T4, human serum albumin; experiment: as above
Rat serum albumin [17] = target: T1, Rat serum albumin; experiment: as above
Mouse serum albumin [18] = target: T2, Mouse serum albumin; experiment: as above
[19] = target: T3, Cynomolgus monkey serum albumin; experiment: as above

Measured: binding

B1: Nanofitin F06 (designed binder)
chain: VKVKFVFSGEEKEVETSKIKWVLRWGKAVGFKYDDQGKIGYGFVAEKDAPKELLDMLARAEREK
notes: also called anti-albumin Nanofitin
binds: all assays above
